The text below walks through data of patent US20240374879A1, “METHODS AND COMPOSITIONS TO REDUCE CELLULAR DEPOSITION, AND HYDROCEPHALUS SHUNT FAILURE” (Wayne State University, priority 2021, published 2024).

A short description of this series: GIT 27 Release Experiment (shunt coating, nanodrop absorbance). Type of series: physicochemical. On the procedure:
GIT 27 Release Experiment: GIT 27 attachment to the surface of a shunt was completed using techniques similar to those described in previous work (Harris et al., J Biomed Mater Res-Part A. 98 A:425-33, 2011). Briefly, ventricular shunts (Medtronic 27600) were cut into 1.5 cm segments and placed in the plasma etcher. Immediately after finishing the etching cycle, the samples were submerged in a solution made up of 2.5 mg/mL N-hydroxysuccinimide (NHS), 2.5 mg/mL 1-Ethyl-3-(3-dimethylaminopropyl) carbodiimide (EDC), and GIT 27 at either a 5, 50, and 1000 μg/mL concentration. Samples were left to incubate for 24 hours and then washed with 0.9% (w/v) saline solution. […]
At days 7, 14, 21, and 28, absorbance values were measured using the same methods as described in previous work (Al-Saloum et al., J Biomed Mater Res-Part B Appl Biomater. 109:1177-1187, 2021). Briefly, 2 μL of solution were placed on the nanodrop machine and measured using the a280 nanodrop setting on the Nano-Drop 2000 program. Absorbance values were recorded and compared to a standard curve made up of 7 concentrations evenly distributed between 0 and 1000 mg/mL of the GIT 27 in saline solution. The equation obtained from the standardized curve was y=18.7x+0.131, where y is the concentration of GIT 27 in the saline solution and x is the absorbance value.

Each structure is given as a SMILES string.

Turning to `O=C(O)CC1CC(c2ccccc2)=NO1` (centres unmarked) [GIT 27, 4,5-Dihydro-3-phenyl-5-isoxazoleacetic acid], where the note is “coating solution 1000 μg/mL, four-week incubation in saline, 37° C.”, the “release of GIT 27 physiosorbed to the catheter surface” value is “partially released”. For the same compound, the “minimum concentration necessary to attach GIT 27 to the surface of the PDMS to display any attachment and release from the catheter” value (plasma etching, NHS/EDC solution) was found to be 1000 µg/mL.
